Laboratory results published in article doi:10.1101/237610.
These are yes or no findings as the source states them, for the method shown. In cells and extracts the contact can be indirect. Some binding calls cover weakened binding; strength is not graded here. For some assays here: Where a sequence is shown, tags or fusion partners need not be part of it.

By UniProt entry, the sequences of proteins in these tests, tags left out.
UniProt P60842: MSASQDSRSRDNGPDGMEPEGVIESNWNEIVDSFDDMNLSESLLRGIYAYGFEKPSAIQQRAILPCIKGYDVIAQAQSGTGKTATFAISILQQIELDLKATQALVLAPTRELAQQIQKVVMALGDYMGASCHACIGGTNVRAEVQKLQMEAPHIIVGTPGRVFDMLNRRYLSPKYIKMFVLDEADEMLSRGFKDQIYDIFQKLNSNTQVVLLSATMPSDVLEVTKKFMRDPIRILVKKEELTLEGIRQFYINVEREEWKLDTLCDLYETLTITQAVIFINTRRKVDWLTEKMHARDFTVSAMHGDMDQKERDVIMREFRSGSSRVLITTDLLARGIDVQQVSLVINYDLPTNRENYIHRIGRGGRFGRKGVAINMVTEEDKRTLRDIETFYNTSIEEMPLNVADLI

Key:
[1] = target: FLAG-eIF4A1 (human), P60842; test: co-IP; details: remark: other sources report otherwise
FLAG-eIF4A1 (human) = FLAG-eIF4A1 (human) (UniProt P60842); test: co-IP

B1: GFP-PAIP1, Q9H074 1-479 (protein)
chain: MSDGFDRAPGAGRGRSRGLGRGGGGPEGGGFPNGAGPAERARHQPPQPKAPGFLQPPPLRQPRTTPPPGAQCEVPASPQRPSRPGALPEQTRPLRAPPSSQDKIPQQNSESAMAKPQVVVAPVLMSKLSVNAPEFYPSGYSSSYTESYEDGCEDYPTLSEYVQDFLNHLTEQPGSFETEIEQFAETLNGCVTTDDALQELVELIYQQATSIPNFSYMGARLCNYLSHHLTISPQSGNFRQLLLQRCRTEYEVKDQAAKGDEVTRKRFHAFVLFLGELYLNLEIKGTNGQVTRADILQVGLRELLNALFSNPMDDNLICAVKLLKLTGSVLEDAWKEKGKMDMEEIIQRIENVVLDANCSRDVKQMLLKLVELRSSNWGRVHATSTYREATPENDPNYFMNEPTFYTSDGVPFTAADPDYQEKYQELLEREDFFPDYEENGTDLSGAGDPYLDDIDDEMDPEIEEAYEKFCLESERKRKQ
[1]
  binding: binds

B2: DAP5 (endogenous) (protein, UniProt P78344 1-907)
chain: MESAIAEGGASRFSASSGGGGSRGAPQHYPKTAGNSEFLGKTPGQNAQKWIPARSTRRDDNSAANNSANEKERHDAIFRKVRGILNKLTPEKFDKLCLELLNVGVESKLILKGVILLIVDKALEEPKYSSLYAQLCLRLAEDAPNFDGPAAEGQPGQKQSTTFRRLLISKLQDEFENRTRNVDVYDKRENPLLPEEEEQRAIAKIKMLGNIKFIGELGKLDLIHESILHKCIKTLLEKKKRVQLKDMGEDLECLCQIMRTVGPRLDHERAKSLMDQYFARMCSLMLSKELPARIRFLLQDTVELREHHWVPRKAFLDNGPKTINQIRQDAVKDLGVFIPAPMAQGMRSDFFLEGPFMPPRMKMDRDPLGGLADMFGQMPGSGIGTGPGVIQDRFSPTMGRHRSNQLFNGHGGHIMPPTQSQFGEMGGKFMKSQGLSQLYHNQSQGLLSQLQGQSKDMPPRFSKKGQLNADEISLRPAQSFLMNKNQVPKLQPQITMIPPSAQPPRTQTPPLGQTPQLGLKTNPPLIQEKPAKTSKKPPPSKEELLKLTETVVTEYLNSGNANEAVNGVREMRAPKHFLPEMLSKVIILSLDRSDEDKEKASSLISLLKQEGIATSDNFMQAFLNVLDQCPKLEVDIPLVKSYLAQFAARAIISELVSISELAQPLESGTHFPLFLLCLQQLAKLQDREWLTELFQQSKVNMQKMLPEIDQNKDRMLEILEGKGLSFLFPLLKLEKELLKQIKLDPSPQTIYKWIKDNISPKLHVDKGFVNILMTSFLQYISSEVNPPSDETDSSSAPSKEQLEQEKQLLLSFKPVMQKFLHDHVDLQVSALYALQVHCYNSNFPKGMLLRFFVHFYDMEIIEEEAFLAWKEDITQEFPGKGKALFQVNQWLTWLETAEEEESEEEAD
FLAG-eIF4A1 (human)
  binding: binds
